Data reported in article PMC4439114.
Results are given in words; binding and its absence hold for the method and conditions named. Binding seen in cells or lysates may run through a third protein. Some binding calls cover weakened binding; strength is not graded here.

By UniProt entry, the sequences of proteins in these tests, tags left out. Residues count along the entry.
UniProt O14763, residues 56-440: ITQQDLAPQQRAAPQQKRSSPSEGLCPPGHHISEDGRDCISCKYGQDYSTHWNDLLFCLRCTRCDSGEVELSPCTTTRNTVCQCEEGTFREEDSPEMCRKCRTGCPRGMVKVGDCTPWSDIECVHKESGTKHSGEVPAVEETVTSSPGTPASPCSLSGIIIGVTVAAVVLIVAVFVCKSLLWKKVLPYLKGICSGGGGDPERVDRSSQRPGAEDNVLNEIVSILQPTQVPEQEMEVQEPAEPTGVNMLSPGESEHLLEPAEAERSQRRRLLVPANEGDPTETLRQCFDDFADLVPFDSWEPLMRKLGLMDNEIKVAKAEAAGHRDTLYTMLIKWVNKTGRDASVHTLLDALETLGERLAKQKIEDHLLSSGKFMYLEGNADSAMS
UniProt Q13158: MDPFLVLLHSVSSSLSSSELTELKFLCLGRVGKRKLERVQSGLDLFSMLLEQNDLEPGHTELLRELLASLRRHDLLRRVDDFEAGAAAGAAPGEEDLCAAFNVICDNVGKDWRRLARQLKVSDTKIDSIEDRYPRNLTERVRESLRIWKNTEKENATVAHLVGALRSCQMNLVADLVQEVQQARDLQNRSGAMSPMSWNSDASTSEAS
UniProt Q13546: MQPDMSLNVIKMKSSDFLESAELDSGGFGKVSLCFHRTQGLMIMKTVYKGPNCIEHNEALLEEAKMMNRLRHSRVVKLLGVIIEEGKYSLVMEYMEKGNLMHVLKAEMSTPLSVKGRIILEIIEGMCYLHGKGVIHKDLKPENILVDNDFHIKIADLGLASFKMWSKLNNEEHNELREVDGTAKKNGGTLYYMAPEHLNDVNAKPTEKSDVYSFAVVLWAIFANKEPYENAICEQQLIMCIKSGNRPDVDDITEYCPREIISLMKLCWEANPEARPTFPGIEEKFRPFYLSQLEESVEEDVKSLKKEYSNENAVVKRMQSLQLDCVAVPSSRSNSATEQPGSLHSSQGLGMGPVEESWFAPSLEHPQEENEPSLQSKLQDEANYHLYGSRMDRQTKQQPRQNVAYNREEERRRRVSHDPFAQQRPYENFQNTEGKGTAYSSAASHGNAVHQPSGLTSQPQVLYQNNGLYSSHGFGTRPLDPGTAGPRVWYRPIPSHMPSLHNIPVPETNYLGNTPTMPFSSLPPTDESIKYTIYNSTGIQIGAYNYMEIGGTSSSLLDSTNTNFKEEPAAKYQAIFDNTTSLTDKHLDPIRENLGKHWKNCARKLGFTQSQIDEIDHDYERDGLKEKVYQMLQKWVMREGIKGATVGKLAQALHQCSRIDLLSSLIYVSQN

Molecular target: death receptor (DR)5 (human (endogenous in L-O2)) (UniProt O14763)
Assay: co-IP; DR5 immunoprecipitated (DISC isolation) from whole-cell extracts of L-O2 and L-O2-HBx cells 15 min after TRAIL (30 ng/ml), also L-O2-HBx cells transfected with the A20 expression vector or control vector; IP buffer 1% Nonidet P-40, 50 mM Tris-HCl pH 7.4, 50 mM EDTA, 150 mM NaCl; protein A/G plus agarose beads and 5 ug antibody overnight at 4 °C; partners detected by western blot

Substance | binding
Fas-associated death domain (FADD) (from UniProt Q13158 1-208) | binds
receptor-interacting protein (RIP)1 (from UniProt Q13546 1-671) | binds
